These results are taken from article doi:10.1101/575241.

The chains behind the UniProt entries cited, without tags or fusion partners. Where a name states a change or a piece, a line headed by the entry shows the natural chain unless it says otherwise. A line that says so, or that is headed by a name, gives the form on record, which may keep a tag or linker. Residues count along the entry.
UniProt P36096, residues 655-758: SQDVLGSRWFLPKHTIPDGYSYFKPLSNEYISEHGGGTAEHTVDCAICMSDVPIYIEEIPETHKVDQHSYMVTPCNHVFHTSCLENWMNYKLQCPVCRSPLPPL
UniProt Q06651: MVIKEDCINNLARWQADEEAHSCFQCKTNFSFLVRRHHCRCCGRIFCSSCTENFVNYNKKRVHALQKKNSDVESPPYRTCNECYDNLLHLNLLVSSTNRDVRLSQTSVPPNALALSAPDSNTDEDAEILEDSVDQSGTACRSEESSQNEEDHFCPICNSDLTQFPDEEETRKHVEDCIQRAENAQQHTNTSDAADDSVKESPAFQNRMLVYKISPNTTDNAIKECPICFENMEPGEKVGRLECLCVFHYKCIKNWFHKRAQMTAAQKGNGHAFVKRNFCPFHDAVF
UniProt P61088: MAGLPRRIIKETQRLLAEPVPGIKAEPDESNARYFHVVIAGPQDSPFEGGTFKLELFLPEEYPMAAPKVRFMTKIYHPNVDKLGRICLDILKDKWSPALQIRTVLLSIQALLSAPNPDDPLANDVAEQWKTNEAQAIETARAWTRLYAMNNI
UBE2V1 (Q13404-2, form named): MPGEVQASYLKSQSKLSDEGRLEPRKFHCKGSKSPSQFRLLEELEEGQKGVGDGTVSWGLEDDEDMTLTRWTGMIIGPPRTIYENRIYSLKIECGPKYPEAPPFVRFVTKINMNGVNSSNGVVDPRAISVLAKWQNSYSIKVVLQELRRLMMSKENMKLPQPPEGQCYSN
UniProt Q15819: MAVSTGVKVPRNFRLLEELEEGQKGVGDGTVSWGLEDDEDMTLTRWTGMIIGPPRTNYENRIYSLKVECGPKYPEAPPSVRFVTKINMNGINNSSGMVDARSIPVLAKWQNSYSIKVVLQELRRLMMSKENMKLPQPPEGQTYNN
UniProt P15731: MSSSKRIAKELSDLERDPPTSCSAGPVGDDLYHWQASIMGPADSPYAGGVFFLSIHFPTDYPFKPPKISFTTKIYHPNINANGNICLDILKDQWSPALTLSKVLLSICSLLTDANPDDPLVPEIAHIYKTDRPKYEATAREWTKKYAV
UniProt P33296: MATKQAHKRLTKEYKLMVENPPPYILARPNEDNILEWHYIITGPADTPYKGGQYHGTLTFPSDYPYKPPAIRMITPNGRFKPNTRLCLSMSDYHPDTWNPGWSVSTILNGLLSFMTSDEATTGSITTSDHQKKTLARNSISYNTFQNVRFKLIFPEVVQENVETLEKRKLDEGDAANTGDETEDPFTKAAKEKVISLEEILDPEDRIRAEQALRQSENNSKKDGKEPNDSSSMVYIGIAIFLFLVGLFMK

Like-named read-outs stand apart in the source and are kept apart here. These are yes or no findings as the source states them, for the method shown. Some binding calls cover weakened binding; strength is not graded here.

What all share (assay): two-hybrid
Assay [1] concerns the target T1, Human ZNRF2 (human) (UniProt Q8NHG8).
T1 sequence: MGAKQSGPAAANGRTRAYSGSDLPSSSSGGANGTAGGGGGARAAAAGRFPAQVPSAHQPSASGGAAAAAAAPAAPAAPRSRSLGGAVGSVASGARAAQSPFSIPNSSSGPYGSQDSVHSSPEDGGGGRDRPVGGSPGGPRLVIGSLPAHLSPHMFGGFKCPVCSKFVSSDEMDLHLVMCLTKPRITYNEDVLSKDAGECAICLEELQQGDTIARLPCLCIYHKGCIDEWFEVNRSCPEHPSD

Assay [2] addresses Tul1 (aa 655-758) (S. cerevisiae) (UniProt P36096).
Assay [3] concerns the target Pib1 (S. cerevisiae) (UniProt Q06651).
For assay [4], the target named is T1, Human ZNRF2 (human). The source holds these as a separate data set.
The target in assay [5] is Tul1 (aa 655-758) (S. cerevisiae) (UniProt P36096). This is another data set of the same source.
The target in assay [6] is Pib1 (S. cerevisiae) (UniProt Q06651). The source holds these as a separate data set.

For the molecule “human UBC13 (from UniProt P61088 1-152) (enzyme)”, in the assay with Human ZNRF2 (human) [1], the binding result was “binds”.

In the case of UBE2V1 (from UniProt Q13404-2 1-170), the binding entry with Human ZNRF2 (human) [1] is “binds weakly”.

On to UBE2V2 (from UniProt Q15819 1-145), for which the binding result with Human ZNRF2 (human) [1] is “binds weakly”.

For the molecule “Ubc4 (from UniProt P15731 1-148) (enzyme)”, in assay [2], the binding result is reported as “no binding”.

Take “Ubc6 (from UniProt P33296 1-250) (enzyme)”: the binding result in assay [2] is recorded as “binds weakly”.

B1: Ubc13 (enzyme, UniProt P52490 1-153)
chain: MASLPKRIIKETEKLVSDPVPGITAEPHDDNLRYFQVTIEGPEQSPYEDGIFELELYLPDDYPMEAPKVRFLTKIYHPNIDRLGRICLDVLKTNWSPALQIRTVLLSIQALLASPNPNDPLANDVAEDWIKNEQGAKAKAREWTKLYAKKKPE
For B1, the binding result with Pib1 (S. cerevisiae) [3] was “binds”; in the assay with Human ZNRF2 (human) [4], “binds”; in assay [5] it was “binds weakly”; in the assay with Pib1 (S. cerevisiae) [6], “binds”.

B2: Mms2 (protein, UniProt P53152 1-137)
chain: MSKVPRNFRLLEELEKGEKGFGPESCSYGLADSDDITMTKWNGTILGPPHSNHENRIYSLSIDCGPNYPDSPPKVTFISKINLPCVNPTTGEVQTDFHTLRDWKRAYTMETLLLDLRKEMATPANKKLRQPKEGETF
For B2, the binding entry (in the assay with Human ZNRF2 (human) [4]; in assay [5]) was “binds weakly” each time.
